± gives the standard deviation of the averaged measurements. Whole data set: some 3,800 compounds, median “cell shape (eccentricity) Z-score vs DMSO control” near 1.1, cut for the lowest 2% near -4.7. The list shows a part of the results.

In the assay the test system is human monocyte-derived macrophages (M0). Description: cell shape (eccentricity) Z-score vs DMSO control; higher = more elongated, M2-like morphology. To be noted: 20 µM; 24 h; macrophage state: M0 (M-CSF).
For `CCN(CC)CCNC(=O)c1cc(Br)c(N)cc1OC`, the “cell shape (Z-score)” value amounted to 2.01.

In the case of `CC(C)C1C(=O)N(S(C)(=O)=O)[C@@H]2CCN(C(=O)/C=C/CN3CCCCC3)[C@@H]12` (some centres undefined), the “cell shape (Z-score)” value came to 1.03.

Consider `Cc1ccc2c(c1O)C(=O)c1ccc(O[C@@H]3O[C@H](CO[C@@H]4OC[C@@H](O)[C@H](O)[C@H]4O)[C@@H](O)[C@H](O)[C@H]3O)cc1C2=O`, for which the “cell shape (Z-score)” value was determined as 1.53 ± 0.64.

On to `c1ccc2nc(C3=NCCN3)ccc2c1`, for which the “cell shape (Z-score)” value is 0.187.

On to `CC(C)C1CCC2(C)CCC(O)C(C)(O)C2C1OC(=O)/C=C/c1ccccc1` (centres undefined), for which the “cell shape (Z-score)” value was 0.667 ± 2.

With `CCN1CCN(c2cc3c(cc2F)c(=O)c(C(=O)O)cn3C2CC2)CC1`, the “cell shape (Z-score)” value is -0.0252.

Consider `O=C1c2c(O)cc(O)cc2O[C@@H](c2ccc(O)cc2)[C@@H]1c1c(O)cc(O)c2c(=O)cc(-c3ccc(O)cc3)oc12`, for which the “cell shape (Z-score)” value was found to be 0.523.

With `CC(Cc1ccc(O)c(O)c1)(NN)C(=O)O` (centres undefined), the “cell shape (Z-score)” value was -0.173.

`CC(C)C[C@@H](NC(=O)OCC1c2ccccc2-c2ccccc21)C(=O)O`: the “cell shape (Z-score)” value came to 1.4.

For the molecule `O=C(C=Cc1ccccc1)NC(NC(=S)Nc1cccc2cccnc12)C(Cl)(Cl)Cl` (centres undefined), the “cell shape (Z-score)” value was found to be 1.46.

In the case of `C=C[C@H]1C[N@@]2CC[C@H]1C[C@@H]2[C@@H](O)c1ccnc2ccc(OC)cc12`, the “cell shape (Z-score)” value was found to be 1.81.

`Cc1cc2nc(NCCCO)n(CC(=O)c3cc(C(C)(C)C)c(O)c(C(C)(C)C)c3)c2cc1C`: the “cell shape (Z-score)” value turned out to be 3.67.

In the case of `O=C1NC(=O)c2cc(Nc3ccc(F)cc3)c(Nc3ccc(F)cc3)cc21`, the “cell shape (Z-score)” value is 1.81.

For the molecule `COc1ccc2c(c1OC)CN(C)CCc1cc3c(cc1C(=O)C2)OCO3`, the “cell shape (Z-score)” value came out at 6.66.

For the molecule `COc1ccc2c(c1)O[C@H]1c3ccc(O)cc3OC[C@@H]21`, the “cell shape (Z-score)” value was 1.83.

With `CC(C)NNC(=O)c1ccncc1`, the “cell shape (Z-score)” value is 0.00576.

As for `COCCCOc1ccnc(CS(=O)c2nc3ccccc3[nH]2)c1C` (centres undefined), the “cell shape (Z-score)” value was -6.29.

For `O=C(NCC1CCCCN1)c1cc(OCC(F)(F)F)ccc1OCC(F)(F)F` (centres undefined), the “cell shape (Z-score)” value stood at 1.95.

For `Cc1c(N(C)CS(=O)(=O)O)c(=O)n(-c2ccccc2)n1C`, the “cell shape (Z-score)” value is -0.614.

With `OCc1cc2c([nH]c3ccccc32)c(C(O)CO)n1` (centres undefined), the “cell shape (Z-score)” value stood at 3.05.

Take `CCCCCN(CCCCC)C(=O)C(CCC(=O)O)NC(=O)c1ccc(Cl)c(Cl)c1` (centres undefined): the “cell shape (Z-score)” value stood at 0.899.

For `CC(=O)NNC(=O)N1Cc2ccccc2Oc2ccc(Cl)cc21`, the “cell shape (Z-score)” value is 2.13.

Turning to `Cn1c([N+](=O)[O-])cnc1COC(N)=O`, the “cell shape (Z-score)” value came to 5.6.

For the molecule `CC1(COc2ccc(CC3SC(=O)NC3=O)cc2)CCCCC1` (centres undefined), the “cell shape (Z-score)” value worked out at 1.51.

`COc1cc2ccc(=O)oc2c(CC=C(C)C)c1OC`: the “cell shape (Z-score)” value was determined as 1.91.

Regarding `COc1cc(O)c2c(c1)C(=O)c1cc(C)cc(O)c1C2=O`, the “cell shape (Z-score)” value was 2.65.

For the molecule `Cc1ccc(/C(=C\CN2CCCC2)c2ccccn2)cc1`, the “cell shape (Z-score)” value came out at 1.6.

On to `O=c1oc2c(O)c(O)cc3c(=O)oc4c(O)c(O)cc1c4c23`, for which the “cell shape (Z-score)” value is -0.198.

On to `O=C(c1cc(Cc2n[nH]c(=O)c3ccccc23)ccc1F)N1CCN(C(=O)C2CC2)CC1`, for which the “cell shape (Z-score)” value came to 2.18.
